Measurements taken from patent publication US20210223229A1, “IMMUNE FUNCTION INSPECTION METHOD, CANCER PATIENT CATEGORIZATION METHOD, CANCER TREATMENT EFFICACY PREDICTION METHOD, AGENT FOR INCREASING INTRACELLULAR CALCIUM ION CONCENTRATION, AGENT FOR INCREASING SELECTIVE FUNCTION OF EFFECTOR MEMORY (EM) AND EFFECTOR (EFF) IN TUMOR TISSUE, AND METHOD FOR …” (NATIONAL UNIVERSITY CORPORATION OKAYAMA UNIVERSITY, priority 2016, published 2021).

Test system: glucose transporter (Glut1) in CD8TIL
Experiment: Glut1 expression versus changes in glucose concentration in CD8TIL, MethA tumor
Type: in vivo, BALB/c mice
Conditions: 6-hour in-vitro culture
Experimental: Syngeneic tumor (MethA) 2×10^6 was intradermally injected to 8-week old BALB/c mice, and administration of metformin (5 mg/mL) was started from Day 7. Three days after the treatment, the tumor-infiltrating T cells (TIL) were separated. After culture in the presence of a culture solution having a glucose concentration of 0, 0.1, 1.2, 6.1, 12.5, or 25 mM at 37° C. for 0, 1, 3, 6 hours, the cells were stained with CD3, CD8, and glucose transporter (Glut1) antibodies, followed by analysis using a flow cytometer (FIG. 9).

`CN(C)C(=N)N=C(N)N` [metformin] was tested, and the “glucose concentration at which the highest Glut-1 level was observed” value was 6.1 µM and the “glucose concentration of the culture solution at which the highest Glut-1 up-regulation was observed” value was at least 6.1 mM.
